# Laboratory results: the supplement of paper PMC12823440, “Inhibitors supercharge kinase turnover through native proteolytic circuits” (Nature, 2025)
# Chains of the proteins cited; added tags and fusions are not shown. Lines headed by an entry give the natural chain unless they say otherwise; changes in a name come on top.
# UniProt Q01974, whole entry: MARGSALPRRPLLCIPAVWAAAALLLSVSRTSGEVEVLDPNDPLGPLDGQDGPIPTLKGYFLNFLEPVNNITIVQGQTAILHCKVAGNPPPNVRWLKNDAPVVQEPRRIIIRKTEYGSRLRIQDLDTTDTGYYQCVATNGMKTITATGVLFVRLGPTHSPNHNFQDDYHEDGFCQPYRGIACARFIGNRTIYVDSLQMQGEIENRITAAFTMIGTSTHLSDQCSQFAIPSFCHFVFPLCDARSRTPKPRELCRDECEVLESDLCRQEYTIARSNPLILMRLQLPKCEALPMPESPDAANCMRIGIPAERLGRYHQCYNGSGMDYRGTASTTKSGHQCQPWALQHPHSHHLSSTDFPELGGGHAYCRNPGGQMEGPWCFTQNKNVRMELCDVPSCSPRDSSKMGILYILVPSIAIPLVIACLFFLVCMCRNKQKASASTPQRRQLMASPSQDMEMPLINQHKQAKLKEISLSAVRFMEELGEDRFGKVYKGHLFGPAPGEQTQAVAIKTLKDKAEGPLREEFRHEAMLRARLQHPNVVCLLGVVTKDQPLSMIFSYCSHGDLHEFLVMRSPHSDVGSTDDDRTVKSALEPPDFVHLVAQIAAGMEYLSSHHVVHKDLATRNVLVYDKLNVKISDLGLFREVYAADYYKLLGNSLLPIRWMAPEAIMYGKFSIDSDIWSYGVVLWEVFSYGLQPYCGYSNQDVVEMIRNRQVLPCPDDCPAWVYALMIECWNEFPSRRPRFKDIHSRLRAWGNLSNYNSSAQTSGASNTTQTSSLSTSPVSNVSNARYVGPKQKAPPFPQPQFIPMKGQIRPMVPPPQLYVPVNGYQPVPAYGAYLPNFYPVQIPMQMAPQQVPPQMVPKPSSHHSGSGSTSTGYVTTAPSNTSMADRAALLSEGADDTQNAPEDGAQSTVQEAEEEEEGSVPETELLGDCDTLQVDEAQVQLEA
# UniProt Q15418, whole entry: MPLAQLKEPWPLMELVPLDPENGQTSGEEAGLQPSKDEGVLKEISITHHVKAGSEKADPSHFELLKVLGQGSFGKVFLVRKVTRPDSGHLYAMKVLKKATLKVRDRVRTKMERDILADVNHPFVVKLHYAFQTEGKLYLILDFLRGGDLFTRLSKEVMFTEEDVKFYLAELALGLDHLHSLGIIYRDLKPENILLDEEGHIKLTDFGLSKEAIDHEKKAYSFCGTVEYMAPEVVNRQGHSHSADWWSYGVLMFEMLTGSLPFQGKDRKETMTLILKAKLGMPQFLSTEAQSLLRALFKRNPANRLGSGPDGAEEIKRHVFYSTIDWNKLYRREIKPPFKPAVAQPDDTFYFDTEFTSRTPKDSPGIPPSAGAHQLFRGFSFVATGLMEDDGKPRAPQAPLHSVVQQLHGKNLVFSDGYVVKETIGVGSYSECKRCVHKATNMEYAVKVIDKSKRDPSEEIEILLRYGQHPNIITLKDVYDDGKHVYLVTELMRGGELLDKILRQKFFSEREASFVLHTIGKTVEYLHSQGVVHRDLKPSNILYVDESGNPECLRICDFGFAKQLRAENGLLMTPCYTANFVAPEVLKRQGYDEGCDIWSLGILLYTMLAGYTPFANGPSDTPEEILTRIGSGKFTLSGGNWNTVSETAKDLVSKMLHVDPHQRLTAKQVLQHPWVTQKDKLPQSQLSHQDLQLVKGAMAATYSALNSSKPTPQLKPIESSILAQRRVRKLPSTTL
# UniProt Q9NYA1, whole entry: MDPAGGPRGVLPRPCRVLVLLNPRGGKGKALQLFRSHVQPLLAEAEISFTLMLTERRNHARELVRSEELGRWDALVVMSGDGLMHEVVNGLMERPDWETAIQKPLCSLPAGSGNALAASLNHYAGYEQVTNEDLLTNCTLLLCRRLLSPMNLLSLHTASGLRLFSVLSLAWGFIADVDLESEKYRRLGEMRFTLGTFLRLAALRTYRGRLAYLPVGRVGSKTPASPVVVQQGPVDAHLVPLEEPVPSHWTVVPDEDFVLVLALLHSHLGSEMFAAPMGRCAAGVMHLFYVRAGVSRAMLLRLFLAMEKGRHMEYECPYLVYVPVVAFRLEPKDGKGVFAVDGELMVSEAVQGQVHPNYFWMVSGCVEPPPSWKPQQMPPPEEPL
# UniProt Q9Y6E0: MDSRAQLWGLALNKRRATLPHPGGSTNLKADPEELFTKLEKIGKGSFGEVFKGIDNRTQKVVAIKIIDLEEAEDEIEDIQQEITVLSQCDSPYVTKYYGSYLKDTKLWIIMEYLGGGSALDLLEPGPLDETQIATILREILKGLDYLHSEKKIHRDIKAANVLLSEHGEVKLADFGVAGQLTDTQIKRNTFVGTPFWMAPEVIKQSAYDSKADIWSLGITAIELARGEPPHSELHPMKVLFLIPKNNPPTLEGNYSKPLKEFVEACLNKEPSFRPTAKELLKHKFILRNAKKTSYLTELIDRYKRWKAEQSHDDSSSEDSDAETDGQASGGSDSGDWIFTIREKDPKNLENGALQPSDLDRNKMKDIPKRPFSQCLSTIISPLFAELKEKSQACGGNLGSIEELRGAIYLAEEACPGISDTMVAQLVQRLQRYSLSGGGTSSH
# UniProt Q15208: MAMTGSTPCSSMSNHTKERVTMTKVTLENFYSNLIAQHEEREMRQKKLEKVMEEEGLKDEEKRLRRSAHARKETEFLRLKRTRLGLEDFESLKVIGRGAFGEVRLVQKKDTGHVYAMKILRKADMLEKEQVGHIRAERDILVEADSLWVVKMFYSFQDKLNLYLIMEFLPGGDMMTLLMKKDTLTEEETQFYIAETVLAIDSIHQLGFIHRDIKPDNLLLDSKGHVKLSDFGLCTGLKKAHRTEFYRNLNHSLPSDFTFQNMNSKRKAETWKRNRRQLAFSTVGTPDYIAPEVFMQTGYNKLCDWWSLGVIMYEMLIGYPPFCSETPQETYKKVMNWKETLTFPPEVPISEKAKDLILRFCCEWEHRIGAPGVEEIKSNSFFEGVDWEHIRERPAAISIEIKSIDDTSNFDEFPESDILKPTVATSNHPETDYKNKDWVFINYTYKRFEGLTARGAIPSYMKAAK
# UniProt P42680: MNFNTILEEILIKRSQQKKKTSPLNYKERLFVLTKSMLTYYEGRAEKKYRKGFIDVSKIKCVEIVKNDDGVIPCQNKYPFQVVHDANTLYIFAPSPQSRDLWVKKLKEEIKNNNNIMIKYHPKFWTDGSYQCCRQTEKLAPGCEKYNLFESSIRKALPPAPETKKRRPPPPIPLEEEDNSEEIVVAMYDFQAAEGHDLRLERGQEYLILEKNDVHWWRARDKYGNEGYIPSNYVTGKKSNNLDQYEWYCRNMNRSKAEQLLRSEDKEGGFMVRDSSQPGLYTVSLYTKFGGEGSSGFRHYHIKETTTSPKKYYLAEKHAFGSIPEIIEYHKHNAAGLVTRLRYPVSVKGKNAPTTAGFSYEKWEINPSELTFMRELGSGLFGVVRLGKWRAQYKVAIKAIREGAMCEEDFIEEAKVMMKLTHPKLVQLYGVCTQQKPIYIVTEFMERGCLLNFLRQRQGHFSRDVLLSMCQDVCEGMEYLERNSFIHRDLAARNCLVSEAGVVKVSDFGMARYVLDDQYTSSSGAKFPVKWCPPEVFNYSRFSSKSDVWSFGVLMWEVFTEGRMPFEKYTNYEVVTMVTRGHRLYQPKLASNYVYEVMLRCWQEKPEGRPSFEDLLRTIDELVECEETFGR
# UniProt P29597: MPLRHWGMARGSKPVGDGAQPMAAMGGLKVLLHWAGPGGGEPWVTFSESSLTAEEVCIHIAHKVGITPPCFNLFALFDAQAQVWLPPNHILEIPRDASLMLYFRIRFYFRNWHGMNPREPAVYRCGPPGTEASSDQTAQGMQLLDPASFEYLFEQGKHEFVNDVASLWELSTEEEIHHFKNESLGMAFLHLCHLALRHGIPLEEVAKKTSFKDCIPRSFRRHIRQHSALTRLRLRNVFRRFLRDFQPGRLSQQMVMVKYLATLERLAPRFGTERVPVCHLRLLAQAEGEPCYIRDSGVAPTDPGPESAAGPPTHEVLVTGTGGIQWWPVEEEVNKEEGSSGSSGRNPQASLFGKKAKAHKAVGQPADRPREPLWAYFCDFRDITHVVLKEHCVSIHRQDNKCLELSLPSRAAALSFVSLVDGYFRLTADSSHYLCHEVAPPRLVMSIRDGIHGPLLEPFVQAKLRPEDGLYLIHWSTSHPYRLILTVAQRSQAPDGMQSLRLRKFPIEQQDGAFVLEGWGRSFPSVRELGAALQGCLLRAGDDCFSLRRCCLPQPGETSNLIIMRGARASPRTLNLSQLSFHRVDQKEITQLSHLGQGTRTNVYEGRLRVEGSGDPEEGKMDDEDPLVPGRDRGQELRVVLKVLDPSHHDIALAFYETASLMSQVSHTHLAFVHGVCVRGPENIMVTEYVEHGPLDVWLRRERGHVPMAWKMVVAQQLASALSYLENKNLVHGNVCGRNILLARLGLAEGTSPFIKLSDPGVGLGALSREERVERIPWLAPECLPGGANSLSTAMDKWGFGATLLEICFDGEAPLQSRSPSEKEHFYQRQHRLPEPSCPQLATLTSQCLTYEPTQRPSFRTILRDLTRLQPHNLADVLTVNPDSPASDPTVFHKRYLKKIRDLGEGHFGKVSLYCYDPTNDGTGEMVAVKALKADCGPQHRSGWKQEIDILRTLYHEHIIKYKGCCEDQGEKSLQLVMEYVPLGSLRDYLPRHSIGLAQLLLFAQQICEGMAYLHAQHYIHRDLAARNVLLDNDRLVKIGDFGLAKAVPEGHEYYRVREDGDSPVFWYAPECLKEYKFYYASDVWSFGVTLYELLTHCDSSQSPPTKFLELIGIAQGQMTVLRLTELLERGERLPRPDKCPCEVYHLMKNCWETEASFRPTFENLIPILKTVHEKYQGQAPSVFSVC
# UniProt Q6PHR2: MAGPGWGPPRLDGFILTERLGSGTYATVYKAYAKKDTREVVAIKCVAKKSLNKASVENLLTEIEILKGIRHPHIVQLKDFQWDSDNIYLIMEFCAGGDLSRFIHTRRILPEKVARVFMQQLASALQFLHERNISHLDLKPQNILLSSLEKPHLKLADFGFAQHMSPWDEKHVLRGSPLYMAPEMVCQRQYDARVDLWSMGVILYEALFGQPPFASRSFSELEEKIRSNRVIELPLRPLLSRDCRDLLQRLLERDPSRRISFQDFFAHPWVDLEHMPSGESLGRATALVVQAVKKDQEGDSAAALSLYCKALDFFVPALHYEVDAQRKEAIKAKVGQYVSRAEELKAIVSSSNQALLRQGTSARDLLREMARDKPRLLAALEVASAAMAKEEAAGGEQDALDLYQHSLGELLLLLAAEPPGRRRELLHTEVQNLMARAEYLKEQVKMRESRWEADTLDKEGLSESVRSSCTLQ
# Structures can show the parent of a compound that is named as a salt. The list shows a part of the results. Hit calls seldom repeat between salt and free forms of one compound.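 In K562 cells expressing nanoluciferase-fused kinases, luminescence was recorded at 4 h intervals between 2 and 18 h, normalized as percent of control with DMSO at 100% and a positive control at 0%. A significant (2 sigma) signal drop marks a time point as decreased. The authors' rule for a hit is not shown and takes in more than the number of time points.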
# What was measured:
# Test in all cases: number of time points (of 5) at which kinase-Nluc abundance scored as decreased, DMSO-normalised (count); higher = more persistent destabilization
# Conditions in all cases: K562; 2-18 h
# ROR2 = ROR2 (UniProt Q01974)
# RPS6KA1 = RPS6KA1 (UniProt Q15418)
# SPHK1 = SPHK1 (UniProt Q9NYA1)
# SRC = SRC (UniProt P12931)
# STK24 = STK24 (UniProt Q9Y6E0)
# STK38 = STK38 (UniProt Q15208)
# SYK = SYK (UniProt P43405)
# TEC = TEC (UniProt P42680)
# TYK2 = TYK2 (UniProt P29597)
# ULK3 = ULK3 (UniProt Q6PHR2)
SMILES,number of time points (ROR2),number of time points (RPS6KA1),number of time points (SPHK1),number of time points (SRC),number of time points (STK24),number of time points (STK38),number of time points (SYK),number of time points (TEC),number of time points (TYK2),number of time points (ULK3)
O=C(NCCCNC(=O)Nc1cccc(C2=NCCN2)c1)Nc1cccc(C2=NCCN2)c1 [p32 Inhibitor M36] (10 µM),0,0,0,0,0,0,0,0,0,0
Cc1cc(NC(=O)c2cccc(NC(=O)/C=C/CN(C)C)c2)ccc1Nc1nccc(-c2cccnc2)n1 (10 µM),0,0,0,0,0,0,0,0,3,0
CC/C=C\C/C=C\C/C=C\CCCCCCCC(=O)O [α-Linolenic acid] (10 µM),0,0,0,0,0,0,0,0,0,0
CNc1nc(Nc2cnn(C3CCN(C4COC4)CC3F)c2Cl)ncc1C(F)(F)F (stereo not given) (10 µM),0,0,0,0,0,0,0,0,0,0
CCN(CC)c1ccc2cc(C(=O)N3CCN(C(=O)C4=Cc5c(Br)cccc5S4(=O)=O)CC3)c(=O)oc2c1 (2 µM),0,0,0,0,0,0,0,0,1,0
COc1cc(N2CCN(C)CC2)ccc1Nc1ncc2c(n1)N(C1CCC1)C(=O)N(c1c(C)cccc1C)C2 (2.5 µM),0,0,0,0,0,0,0,0,0,0
N#Cc1cccc(-c2c[nH]c3ncnc(N4CCOCC4)c23)c1 (10 µM),0,0,0,0,0,0,0,0,0,0
CCN(CC)S(=O)(=O)c1ccc(OC)c(N2CCN(C(=O)c3ccc(F)cc3C(F)(F)F)CC2)c1 (10 µM),0,0,0,0,0,0,0,0,0,0
CC(C)CN[C@H]1CS(=O)(=O)C[C@@H]1S(=O)(=O)c1ccc(Cl)cc1 (10 µM),0,0,0,0,0,0,0,0,1,1
COc1ccc([C@@H]2CC(=O)c3c(O)cc(O)cc3O2)cc1O [Hesperetin] (10 µM),0,0,0,0,0,0,0,0,0,0
Cc1cc(Nc2cc3ncccc3c(N[C@@H]3C[C@H]4CC[C@@H](C3)N4CCC#N)n2)n[nH]1 [Izencitinib] (10 µM),0,0,0,0,0,0,0,0,0,0
CN1CCN(c2ccc(C(=O)Nc3cc(-c4cccc(NS(=O)(=O)c5ccccc5)c4)[nH]n3)cc2)CC1 [BPR1J-097 Hydrochloride] (2.5 µM),0,0,0,0,0,0,0,0,0,1
O=C(CNC(=O)c1ccc(-c2ccccc2)cc1)NC1CCCc2ccccc21 (stereo not given) [TAO Kinase inhibitor 1] (10 µM),0,0,0,0,0,0,0,0,0,0
COc1ccc(C2CC(c3ccccc3)=NN2c2ccc(S(N)(=O)=O)cc2)cc1 (stereo not given) (10 µM),0,0,0,0,0,0,0,0,0,0
CCN1CCN(Cc2ccc(Nc3ncc(F)c(-c4cc(F)c5nc(CO)n(C(C)C)c5c4)n3)nc2)CC1 [Abemaciclib metabolite M20] (2 µM),0,0,0,0,0,0,0,0,0,0
CNCc1ccccc1-c1csc([C@@H](C)Nc2nc(C)nc3cc(OC)c(OC)cc23)c1 (2.5 µM),0,0,0,0,0,0,0,0,0,2
Cc1cc(Nc2nc(N[C@@H](C)c3ccc(F)cc3)c(C#N)cc2F)n[nH]1 (10 µM),0,0,0,0,0,0,0,0,0,0
CC(=O)N1CCN(c2cc(-c3cc(C(F)(F)F)c4c(N)ncnn34)ccc2C#N)C(=O)C1(C)C (10 µM),0,0,0,0,0,0,0,0,0,0

SMILES,number of time points (ROR2),number of time points (RPS6KA1),number of time points (SPHK1),number of time points (SRC),number of time points (STK24),number of time points (STK38),number of time points (SYK),number of time points (TEC),number of time points (TYK2),number of time points (ULK3)
Cc1cc(Nc2cc(Cl)nc(Oc3ccc([N+](=O)[O-])cc3)n2)n[nH]1 [Autophinib] (2.5 µM),0,0,0,0,0,0,0,0,0,0
Cc1c(CN2CCN(S(C)(=O)=O)CC2)sc2c(N3CCOCC3)nc(-c3cnc(N)nc3)nc12 (2.5 µM),0,0,1,0,0,0,0,0,0,0
COc1ccc(C(=O)Nc2sc3c(c2C(N)=O)CCCC3)cc1OC (10 µM),0,0,0,0,0,0,0,0,0,0
CC(C)CN(CC(=O)N1CCN(CC(OCc2ccc3ccccc3c2)c2ccc(Cl)cc2Cl)CC1)CC(C)C (stereo not given) [LYN-1604 (dihydrochloride)] (2.5 µM),0,0,0,0,0,0,0,0,0,0
C[C@]1(O)CCC[C@@H]1n1c(=O)c(C(F)F)cc2cnc(NC3CCN(S(C)(=O)=O)CC3)nc21 (10 µM),0,0,0,0,0,0,0,0,0,0
O=C(Nc1cccnc1)c1cc(C(=O)c2c(F)cccc2Br)c[nH]1 (10 µM),0,0,0,0,0,0,0,0,0,0
Cc1ccc(-c2c(C(=O)CF)n(CCCO)c3ncnc(N)c23)cc1 (10 µM),0,0,0,0,0,0,0,0,0,0
Cc1ccc(S(=O)(=O)/C=C/C#N)cc1 (10 µM),0,0,0,0,0,0,0,0,0,0
CN(CC(=O)N(Cc1ccc(C2CCCCC2)cc1)c1ccc(C(=O)O)cc1)S(=O)(=O)c1c(F)c(F)c(F)c(F)c1F (2.5 µM),0,0,0,0,0,0,0,0,0,0
COc1cc(C(N)=O)nc(-c2cccc(C#C[C@]3(O)CCN(C)C3=O)c2)c1 (10 µM),0,0,0,0,0,0,0,0,0,0
CC(C)CC1(O)CCN(C(=O)c2ccc(NS(=O)(=O)c3cccc4nccnc34)cc2)CC1 (10 µM),0,0,0,0,0,0,0,0,0,0
O=[N+]([O-])c1cc(C(F)(F)F)cc([N+](=O)[O-])c1NNC(=S)Nc1ccc(F)cc1 (10 µM),0,0,0,0,0,0,0,0,0,0
CS(=O)(=O)c1ccc(-c2noc(C(F)(F)F)c2-c2ccccc2)cc1 (10 µM),0,0,0,0,0,0,0,0,0,0
O=C(NCCCNc1nc(Nc2cccc(NC(=O)N3CCCC3)c2)ncc1I)c1cccs1 (2.5 µM),0,0,0,0,0,0,0,0,0,1
CS(=O)(=O)c1ccc(-c2cnc(N)c(C(=O)Nc3ccccc3)n2)cc1 (10 µM),0,0,0,0,0,0,0,0,0,0
C=CC(=O)Nc1cc2c(Nc3ccc(OCc4ccccn4)c(Cl)c3)ncnc2cc1OCCN1CCOCC1 (10 µM),0,0,0,0,0,0,0,0,4,0
Fc1ccc(-c2nc(-c3ccccc3F)[nH]c2-c2ccncc2)cc1 (2.5 µM),0,0,0,0,0,0,0,0,0,0
CN(CCNc1ccc2ncc(-c3ccc(C(N)=O)cc3)n2n1)C(=O)OC(C)(C)C (10 µM),0,0,0,0,0,0,0,0,1,0

# Quoted at random: two compounds from above.
SMILES,number of time points (ROR2),number of time points (RPS6KA1),number of time points (SPHK1),number of time points (SRC),number of time points (STK24),number of time points (STK38),number of time points (SYK),number of time points (TEC),number of time points (TYK2),number of time points (ULK3)
CC(C)CN(CC(=O)N1CCN(CC(OCc2ccc3ccccc3c2)c2ccc(Cl)cc2Cl)CC1)CC(C)C (stereo not given) [LYN-1604 (dihydrochloride)] (2.5 µM),0,0,0,0,0,0,0,0,0,0
CS(=O)(=O)c1ccc(-c2noc(C(F)(F)F)c2-c2ccccc2)cc1 (10 µM),0,0,0,0,0,0,0,0,0,0
